# Test results published in patent US9075281B2, “Colored composition and image display structure” (FUJIFILM CORPORATION, priority 2011, dated 2015).
# Test: Electrowetting test cell evaluation (responsiveness, back flow, OD value)
# Conditions: dye concentration 20% by mass; for Area Contraction Ratio (%) / Response Time: DC 100V; for Area Contraction Ratio (%): 100% indicates a non-contracted state; for Response Time: time until most contracted state; for OD Value: at maximum absorption wavelength; for Back Flow Ratio (%): voltage-applied state maintained for 5 seconds
# Protocol: A glass substrate (10 mm×10 mm) on which an indium tin oxide (ITO) film having a thickness of 100 nm was formed as a transparent electrode was prepared. On the surface of the ITO film, a fluoropolymer (tradename: CYTOP manufactured by Asahi Glass Co., Ltd., model CTL-809M) was coated in a thickness of 600 nm, thereby forming a fluoropolymer layer as a hydrophobic insulating film. Subsequently, a picture frame-shaped silicone rubber wall left after cutting out a 8 mm×8 mm×50 μm-sized piece from the central portion of a 1 cm×1 cm-sized silicone rubber (a sealing material having a thickness of 50 μm; SILIUS (tradename) manufactured by Fuso Rubber Co., Ltd.) was placed on the fluoropolymer layer, thereby forming a display area. A colored composition was injected, in a thickness of 4 μm, into the space enclosed by the silicone rubber wall. Onto the injected colored composition, ethyleneglycol (hydrophilic liquid) was further injected in a thickness of 46 μm. Another sheet of the glass plate equipped with the ITO film was further placed thereon such that the ITO film thereof faced the colored composition and the ethyleneglycol, and the glass plate was fixed. In this way, an electrowetting test cell having a structure illustrated in FIG. 1 was prepared.
# A DC voltage of 100V was applied between the ITO films (transparent electrodes) of the two ITO-equipped glass substrates, such that a minus voltage was applied to the ITO electrode on a side on which the fluoropolymer layer (hydrophobic insulating film) was formed. In this state, the display cell (display cell 30 shown in FIG. 2) was observed, and it was confirmed that the colored composition moved on the surface of the fluoropolymer layer in one direction, and that the area of the region on the fluoropolymer layer that was covered by the colored composition decreased.
# The responsiveness (the response time and the area contraction ratio described below) of the colored composition, and the extent of back flow phenomenon when the voltage-applied state was maintained (the back flow ratio described below) were evaluated.
# The decrease of the area due to the voltage application was evaluated based on the area contraction ratio (%) calculated according to the following Equation (1). The extent of back flow phenomenon was evaluated based on the back flow ratio (%) calculated according to the following Equation (2). a) Response time [msec]=the time elapsed from the initiation of the voltage application until the colored composition reaches the most contracted state b) Area contraction ratio (%)=(the area of the colored composition in the most contracted state)/(the area of the colored composition before the voltage application)×100 (Equation (1)) c) Back flow ratio (%)=(the area of the colored composition when the voltage-applied state has been maintained for 5 seconds)/(the area of the colored composition in the most contracted state)×100 (Equation (2))
# In regard to the OD value (image density), each dye was measured and evaluated with respect to OD value at its maximum absorption wavelength, using a spectral radiometer SR-3 manufactured by Topcon Technohouse Corporation.
SMILES,Area Contraction Ratio (%),Response Time,OD Value,Back Flow Ratio (%)
CCCCC(CC)CN(CC(CC)CCCC)c1ccc(/N=C2\C(C#N)=C(C(=O)OC3C(C(C)(C)C)CC(C)CC3C(C)(C)C)c3nc(C(C)(C)C)nn32)cc1 (centres unmarked) [D9-5],16,less than 200 msec,1.6,110
CCCCC(CC)CNC(=O)c1cc(N(CC(CC)CCCC)CC(CC)CCCC)ccc1/N=C1\C(C#N)=C(C(=O)OC2C(C(C)(C)C)CC(C)CC2C(C)(C)C)c2nc(C(C)(C)C)nn21 (centres unmarked) [D9-6],16,less than 200 msec,1.7,110
CCCCC(CC)COc1cc(N(CC(CC)CCCC)CC(CC)CCCC)ccc1N=C1C(=O)N(CC(CC)CCCC)N=C1C (centres unmarked) [D6-1],16,less than 200 msec,1.8,110
CCCCC(CC)CN(CC(CC)CCCC)c1ccc(C=C2C(=O)ON=C2C(C)CC)c(C)c1 (centres unmarked) [D1-1],18,less than 200 msec,1.3,130
CCCCC(CC)CNC(=O)c1cc(N(CC(CC)CCCC)CC(CC)CCCC)ccc1/N=C1/C(CC)=Nn2nc(C(C)C)nc21 (centres unmarked) [D8-9],15,less than 200 msec,2.0,110
